Results on one sequence are retold here after publication PMC5996148.

Amino acid sequences for entries named in this document (tags omitted). A change or cut given only in a name is not applied to a line headed by its entry.
UniProt Q96JL9: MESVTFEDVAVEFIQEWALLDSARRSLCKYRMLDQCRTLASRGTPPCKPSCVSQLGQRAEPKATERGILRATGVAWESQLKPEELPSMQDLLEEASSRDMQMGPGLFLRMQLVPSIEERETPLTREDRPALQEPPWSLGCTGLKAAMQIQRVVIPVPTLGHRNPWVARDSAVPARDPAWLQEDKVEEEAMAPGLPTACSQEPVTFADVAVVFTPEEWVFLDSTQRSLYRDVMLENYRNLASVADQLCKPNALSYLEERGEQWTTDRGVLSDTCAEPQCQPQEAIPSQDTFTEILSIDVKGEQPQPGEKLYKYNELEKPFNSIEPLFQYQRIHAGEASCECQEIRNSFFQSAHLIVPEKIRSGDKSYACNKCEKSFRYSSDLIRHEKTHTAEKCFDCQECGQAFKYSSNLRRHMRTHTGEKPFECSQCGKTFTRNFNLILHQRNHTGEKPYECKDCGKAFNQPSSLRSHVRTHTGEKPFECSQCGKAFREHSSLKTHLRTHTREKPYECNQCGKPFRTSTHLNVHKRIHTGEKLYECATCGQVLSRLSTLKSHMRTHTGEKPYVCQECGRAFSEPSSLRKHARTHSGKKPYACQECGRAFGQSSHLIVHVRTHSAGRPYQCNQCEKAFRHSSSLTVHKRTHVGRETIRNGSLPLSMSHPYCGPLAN
UniProt Q8TF39: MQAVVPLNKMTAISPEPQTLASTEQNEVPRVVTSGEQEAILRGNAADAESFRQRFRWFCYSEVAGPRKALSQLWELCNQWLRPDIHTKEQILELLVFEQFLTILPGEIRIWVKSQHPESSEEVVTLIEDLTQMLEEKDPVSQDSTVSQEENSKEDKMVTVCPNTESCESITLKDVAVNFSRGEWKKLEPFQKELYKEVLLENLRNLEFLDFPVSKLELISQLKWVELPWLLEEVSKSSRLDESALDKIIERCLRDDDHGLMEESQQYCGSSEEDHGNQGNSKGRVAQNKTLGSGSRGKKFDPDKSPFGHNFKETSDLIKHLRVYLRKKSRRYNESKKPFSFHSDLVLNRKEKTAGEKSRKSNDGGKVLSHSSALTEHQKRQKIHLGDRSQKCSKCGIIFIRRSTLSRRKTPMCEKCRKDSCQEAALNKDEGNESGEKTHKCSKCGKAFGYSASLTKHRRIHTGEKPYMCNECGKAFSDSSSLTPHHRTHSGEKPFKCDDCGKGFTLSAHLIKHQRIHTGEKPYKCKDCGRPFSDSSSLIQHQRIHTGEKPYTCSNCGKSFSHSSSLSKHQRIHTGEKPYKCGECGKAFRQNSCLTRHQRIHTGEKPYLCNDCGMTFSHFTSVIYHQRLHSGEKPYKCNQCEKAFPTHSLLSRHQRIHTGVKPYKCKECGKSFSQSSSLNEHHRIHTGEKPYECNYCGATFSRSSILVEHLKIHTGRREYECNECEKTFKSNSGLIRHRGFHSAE

Among the test systems are YIPF4 (human); YIPF5 (human); YKT6 (human); YSK4 (human); ZBED2 (human); ZBTB25 (human); ZBTB8OS (human); ZDHHC19 (human); ZMYM5 (human); ZMYM6 (human); ZNF174 (human); ZNF226 (human); ZNF3 (human); ZNF343 (human); ZNF434 (human); ZNF44 (human); ZNF551 (human); ZNF616 (human).
Common to all, as to assay: protein microarray (ProtoArray v5.0), streptavidin-Alexa Fluor 647
Common to all, as to conditions: 3'-biotin; 20 mM Tris (pH 7.5), 5 mM MgCl2, 100 mM KCl, 0.1% Tween-20, A/T-rich and random oligonucleotide blockers; temperature not stated; high values mean tight binding

For a further test, the target named is ZNF333 (UniProt Q96JL9).
The next test has as its target ZNF483 (UniProt Q8TF39).

The list shows a part of the results. For some assays here: Construct or isoform of the protein are uncertain.

Regarding “GGGAGGCTGAGGCAGG [G4-1 biotinylated (PQS2)]”, the binding signal in the test on YIPF4 (human) is -0.343 z-score; in the test on YIPF5 (human), -0.264 z-score; in the test with YKT6 (human), -0.348 z-score; in the test on YSK4 (human), -0.334 z-score; in the test with ZBED2 (human), -0.327 z-score; in the test on ZBTB25 (human) it was -0.346 z-score. The binding signal with ZBTB8OS (human) was -0.362 z-score; in the test on ZDHHC19 (human), -0.303 z-score; in the test on ZMYM5 (human), -0.38 z-score; in the test with ZMYM6 (human), -0.345 z-score; in the test on ZNF174 (human) it was -0.316 z-score; in the test with ZNF226 (human) it was -0.301 z-score. For the same sequence, the binding signal in the test on ZNF3 (human) is -0.359 z-score; in the test with ZNF333 it was -0.345 z-score; with ZNF343 (human), -0.31 z-score; in the test on ZNF434 (human), -0.311 z-score; with ZNF44 (human), -0.308 z-score; with ZNF483, -0.362 z-score. For the same sequence, the figures for the binding signal in the test on ZNF551 (human) and with ZNF616 (human) were -0.288 z-score and -0.338 z-score, respectively.
